# Assay results taken from the supplement of paper PMC3334620.
# In all, about 33,000 sequences were measured (“E-score (-0.5 to 0.5)”: median about -0.015, highest 2% from about 0.3 on). Some of the results follow.
# Target: T1, Abf1 (UniProt P14164)
# T1 sequence: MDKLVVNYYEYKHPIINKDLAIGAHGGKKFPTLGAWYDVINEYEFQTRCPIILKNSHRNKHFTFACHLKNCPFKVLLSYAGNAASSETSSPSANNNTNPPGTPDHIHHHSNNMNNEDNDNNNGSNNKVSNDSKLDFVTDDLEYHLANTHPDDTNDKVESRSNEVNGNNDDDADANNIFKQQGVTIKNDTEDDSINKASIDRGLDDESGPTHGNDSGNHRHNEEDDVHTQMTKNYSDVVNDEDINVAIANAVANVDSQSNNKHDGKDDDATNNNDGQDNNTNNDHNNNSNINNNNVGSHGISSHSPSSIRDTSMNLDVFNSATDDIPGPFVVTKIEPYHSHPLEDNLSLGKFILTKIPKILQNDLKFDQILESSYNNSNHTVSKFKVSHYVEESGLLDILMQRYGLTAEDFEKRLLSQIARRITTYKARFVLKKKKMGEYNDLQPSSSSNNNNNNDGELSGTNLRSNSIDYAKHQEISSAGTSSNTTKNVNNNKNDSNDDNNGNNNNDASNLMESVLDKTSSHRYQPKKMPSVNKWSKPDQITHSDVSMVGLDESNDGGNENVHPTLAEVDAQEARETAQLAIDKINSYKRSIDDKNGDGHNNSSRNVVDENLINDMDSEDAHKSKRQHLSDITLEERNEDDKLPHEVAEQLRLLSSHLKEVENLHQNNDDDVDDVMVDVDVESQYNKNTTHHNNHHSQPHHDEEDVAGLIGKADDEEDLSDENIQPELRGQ
# Experiment: PBM E-score (8-mer binding enrichment) (E-score (-0.5 to 0.5)); higher = stronger / more preferred TF binding
# Details: protein concentration: 200 nM; construct: GST-full length
# Experimental: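 Universal 'all 10-mer' protein binding microarrays (Agilent AMADID 015681) probed with GST-tagged S. cerevisiae TFs (full-length or DBD) made by in vitro transcription/translation (PURExpress), about 100-200 nM. Bound TF was detected with fluorescent anti-GST. Each ungapped 8-mer (which stands for itself and its reverse complement) is scored by the PBM enrichment score (E-score), a modified Wilcoxon-Mann-Whitney statistic from -0.5 to +0.5, computed with the Universal PBM Analysis Suite. Scale: above 0.35 generally sequence-specific binding.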
row,Sequence,PBM E-score
1,TCACTCCA,0.192
2,ATTAAAGC,0.0349
3,CGTTATAA,0.149
4,AGCAGTTC,-0.104
5,AAATGGAC,0.0432
6,TCAGGTAA,-0.00487
7,AGGCCATC,-0.122
8,TACGGGGA,0.0819
9,ATCAGCCA,-0.113
10,CTAATGTC,0.026
11,ATATCCGC,0.0461
12,AGTTGTTC,0.076
13,CAAAAAGG,0.0204
14,AGACTGTG,-0.114
15,GTACGGAA,0.278
16,CAGCCTGG,-0.181
17,ATATCGGA,0.228
18,CTCCTACC,-0.206
19,TACCCGTA,0.0422
20,ACCAAAAT,0.175
21,CATGCATC,0.0494
22,CGATAACG,0.0981
23,CAGATACA,0.0289
24,AGGCCAGC,-0.239
25,GATAACGC,0.029

row,Sequence,PBM E-score
1,CTCAAGTA,-0.0147
2,ACCCCGGC,-0.243
3,ACCCCCCC,-0.359
4,CCTGCGGA,-0.0432
5,TAGGTACA,0.0831
6,CAACATCA,0.203
7,ACGTTTAT,0.203
8,AGCAGACG,0.0241
9,GTCTTTGA,-0.0341
10,CCACGATC,0.335
11,CGCTGCCA,-0.146
12,AGGCGTTC,-0.191
13,ATTCGAGC,0.0465
14,TATAGACA,0.0187
15,GTATGAAA,0.192
16,GGATTGAA,0.0519
17,GATGAGGA,0.144
18,ACAGGGTA,-0.0317
19,AAGTAACG,0.235
20,GGGGGGGA,-0.342
21,AAGTTAGT,0.0432
22,GGGGGTAA,-0.353
23,ATGGATAG,-0.0516
24,ATAGACAA,0.111
25,AGTTGCGC,0.135

row,Sequence,PBM E-score
1,GGGGACAA,-0.153
2,AACTACTG,-0.0751
3,CACGAGTA,0.0993
4,TCACATGA,0.0551
5,GAATACGA,0.253
6,AACAGGGT,-0.245
7,CCCCTGCC,-0.214
8,ATTGGAGA,0.141
9,CGGTGCGA,0.0363
10,AATTGGAA,0.00386
11,CGATGCCC,-0.136
12,CCAGACGG,-0.0274
13,ACAACTCA,0.0458
14,AGAGGTTA,-0.146
15,AATTCGAT,0.122
16,ACGTGGGA,0.00847
17,GTACTCAA,0.0951
18,AGGCTATC,-0.13
19,AATAGGAA,0.127
20,CCGCTATA,-0.179
21,TGCCGAAA,0.101
22,AATCACCG,0.253
23,CCAGAGAG,-0.16
24,CGCTGGCC,-0.349
25,GTAGCCAA,0.047

row,Sequence,PBM E-score
1,GTAGGCGA,0.111
2,AAACCGTT,-0.0156
3,CGAGAGTA,-0.0361
4,AGCAGCTG,-0.14
5,CGACAGTC,-0.0503
6,AGTATAAG,0.0186
7,ATAAGATA,0.0332
8,CAGTGTGC,-0.2
9,AAGACCAC,-0.349
10,CTCATTGA,-0.0228
11,AACTCGAT,0.212
12,CAGAGTGA,0.178
13,ACACTCCG,-0.187
14,AGGATGGC,-0.11
15,CTTCCTTA,-0.173
16,CCCTGTGC,-0.273
17,GATGTTGA,0.0987
18,CAAGCTGA,-0.0145
19,CAGTTGCC,-0.153
20,ATTATGGA,0.0939
21,AAATGGGT,-0.0572
22,CAAATCTC,0.00619
23,CTGATCTC,0.0271
24,GCACAACC,-0.176
25,ACCCTACT,-0.231

row,Sequence,PBM E-score
1,AAGGGGCA,-0.275
2,GGGGTTTA,-0.162
3,TGCAGCAA,0.0825
4,AGTTTCGG,-0.0424
5,GAAACGCC,-0.0206
6,ATGCAATG,-0.127
7,ATCGCTGC,0.0687
8,GAGGCATC,-0.17
9,CCGGGGGA,-0.348
10,AGACAGGA,0.123
11,TAAAGCCA,0.004
12,CCAAGTCC,-0.278
13,TCATGTCA,0.332
14,AAGGCGCC,0.0722
15,CTTAAGAA,0.183
16,GAGCCTGC,-0.156
17,AAACGGAC,-0.043
18,CATTATAC,0.0096
19,CTCATTCA,0.0616
20,GCGTTGGA,-0.126
21,ATGAGCCC,-0.351
22,CCAGCCTC,-0.0473
23,ACGTCCTG,-0.307
24,CAGAATAG,0.018
25,GCCCGGAA,-0.183

row,Sequence,PBM E-score
1,CTGGGATC,-0.0263
2,TACTCCGA,0.00533
3,CCACCGCG,-0.126
4,TACGTCGA,0.149
5,ACAAGGCT,-0.0608
6,CTAACATC,0.138
7,CCAGTGAG,-0.251
8,CCTGTCCA,-0.187
9,AATCGTCC,0.168
10,AGTTGGTG,-0.0584
11,CCTCATAA,-0.0174
12,ATGGATTA,-0.162
13,ACATGGCT,-0.217
14,ATCATTGC,0.176
15,CCACCGGA,-0.115
16,ACAACCAC,0.0845
17,GCGGCGAC,0.0353
18,TGATACCA,0.184
19,CTTCGGAC,0.176
20,AGACAAGC,-0.0992
21,ATCGCCCA,-0.077
22,CTGACGTC,0.137
23,AAACGCTC,-0.215
24,CGTAGCAC,0.246
25,AATTGGGT,0.086

row,Sequence,PBM E-score
1,GAGAGATC,0.0419
2,TCGATGCA,-0.119
3,AAATCGAC,0.118
4,TCCGTAAA,0.145
5,GTAGAGCA,-0.132
6,ACACGACA,0.368
7,AGCCGGCG,-0.0683
8,CTTCTCAC,0.0852
9,CGACCCAG,0.169
10,ACAACGAT,0.0575
11,CAGGCCGA,-0.189
12,CCCTCGGA,0.00175
13,CCTCGCAC,0.016
14,TCTGACCA,0.119
15,ACTCTGGG,-0.0955
16,AGCGCTCG,-0.197
17,GATATCAA,0.207
18,GAACTGCA,0.0142
19,GACTCCAA,-0.0985
20,TGTGGCAA,-0.0589
21,CATGGGAG,-0.204
22,CAAGACTA,-0.0636
23,ACACTGAA,-0.00951
24,GCGACAAA,0.215
25,ATCTCAAA,0.106

# Quoted at random: seven records from the list, in no set order.
row,Sequence,PBM E-score
24,GCGACAAA,0.215
3,AAATCGAC,0.118
11,CAGGCCGA,-0.189
22,CAAGACTA,-0.0636
20,TGTGGCAA,-0.0589
25,ATCTCAAA,0.106
8,CTTCTCAC,0.0852

# Next results follow:

row,Sequence,PBM E-score
1,CAGACTTA,-0.0885
2,CCTGACCA,0.0226
3,GCTACAGA,-0.126
4,CGCGGTAG,0.0192
5,TCATACCA,-0.0589
6,ACAGGATA,0.0537
7,AGATTGAA,-0.0889
8,TCTCCGAA,-0.155
9,AACATACC,0.0753
10,ATACCTCC,-0.0585
11,ACGCTCCA,-0.0712
12,ACCTCCCC,-0.06
13,CCCGCCCG,-0.163
14,GCGGTAAA,0.0513
15,ATTGTCTA,0.164
16,ATCTGATA,-0.0399
17,GCAATCGC,-0.0773
18,CTAATTGA,-0.112
19,CCACAATA,-0.0124
20,AATGGCTC,-0.118
21,CGTAGGCA,-0.00183
22,ATAACAAC,0.00739
23,ATATTAAC,0.21
24,GCTCGTTA,-0.00823
25,CCTAACTC,0.0272

row,Sequence,PBM E-score
1,CAAACGTC,0.0472
2,GCATACCC,-0.136
3,CTCTGCCA,-0.0346
4,CTCGGACA,-0.0517
5,AGCATTAC,0.0251
6,GAAGGTGA,0.176
7,ACTACTGA,-0.0327
8,GGGATGAA,-0.0107
9,AAAACTTC,0.0216
10,AGTGCTTC,-0.176
11,ACTGCCGG,-0.112
12,AAAGTATC,0.119
13,ATAAACCA,0.0453
14,ATCGCCTC,0.095
15,CTCGGCCC,-0.185
16,ACTCACAG,-0.124
17,CTCCGATC,-0.191
18,AGGAATAG,-0.118
19,AATCTCCG,-0.0449
